According to paper doi:10.1101/2021.06.22.449398:
These are yes or no findings as the source states them, for the method shown. In cells and extracts the contact can be indirect. Some binding calls cover weakened binding; strength is not graded here.

By UniProt entry, the sequences of proteins in these tests, tags left out. Where a name states a change or a piece, a line headed by the entry shows the natural chain unless it says otherwise. Residues count along the entry.
UniProt Q7Z2W4, whole entry: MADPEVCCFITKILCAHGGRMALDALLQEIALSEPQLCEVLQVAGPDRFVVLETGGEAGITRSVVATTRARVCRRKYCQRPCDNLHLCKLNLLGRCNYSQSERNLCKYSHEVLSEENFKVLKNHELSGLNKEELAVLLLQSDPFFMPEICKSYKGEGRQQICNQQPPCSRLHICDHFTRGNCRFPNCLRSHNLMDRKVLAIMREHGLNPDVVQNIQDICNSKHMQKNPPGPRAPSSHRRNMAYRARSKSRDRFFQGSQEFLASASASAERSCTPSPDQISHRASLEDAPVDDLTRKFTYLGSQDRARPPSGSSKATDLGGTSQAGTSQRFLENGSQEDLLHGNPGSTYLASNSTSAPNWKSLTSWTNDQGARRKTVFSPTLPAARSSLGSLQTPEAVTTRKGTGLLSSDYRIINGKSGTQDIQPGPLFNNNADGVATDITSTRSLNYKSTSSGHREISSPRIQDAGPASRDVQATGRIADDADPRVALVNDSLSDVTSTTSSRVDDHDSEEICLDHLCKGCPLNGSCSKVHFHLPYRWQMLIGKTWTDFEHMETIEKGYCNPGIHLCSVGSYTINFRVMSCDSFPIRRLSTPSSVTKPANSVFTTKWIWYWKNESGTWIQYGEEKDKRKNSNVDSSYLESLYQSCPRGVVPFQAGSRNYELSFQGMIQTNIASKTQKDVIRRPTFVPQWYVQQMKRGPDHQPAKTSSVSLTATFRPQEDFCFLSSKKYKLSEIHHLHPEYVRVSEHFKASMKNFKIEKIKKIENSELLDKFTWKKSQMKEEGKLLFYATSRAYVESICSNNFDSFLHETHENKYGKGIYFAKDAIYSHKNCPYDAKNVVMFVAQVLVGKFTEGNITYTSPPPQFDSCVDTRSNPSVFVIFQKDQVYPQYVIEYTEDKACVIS
UniProt Q7Z2W4, 1-256, stated change not applied: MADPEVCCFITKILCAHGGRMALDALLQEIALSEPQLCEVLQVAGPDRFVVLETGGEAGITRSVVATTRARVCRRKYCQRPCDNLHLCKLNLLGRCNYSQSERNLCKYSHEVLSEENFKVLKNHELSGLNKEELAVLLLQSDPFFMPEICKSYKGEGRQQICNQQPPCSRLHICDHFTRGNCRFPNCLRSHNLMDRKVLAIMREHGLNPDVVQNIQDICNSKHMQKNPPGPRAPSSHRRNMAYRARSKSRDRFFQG
UniProt Q7Z2W4, 1-352, stated change not applied: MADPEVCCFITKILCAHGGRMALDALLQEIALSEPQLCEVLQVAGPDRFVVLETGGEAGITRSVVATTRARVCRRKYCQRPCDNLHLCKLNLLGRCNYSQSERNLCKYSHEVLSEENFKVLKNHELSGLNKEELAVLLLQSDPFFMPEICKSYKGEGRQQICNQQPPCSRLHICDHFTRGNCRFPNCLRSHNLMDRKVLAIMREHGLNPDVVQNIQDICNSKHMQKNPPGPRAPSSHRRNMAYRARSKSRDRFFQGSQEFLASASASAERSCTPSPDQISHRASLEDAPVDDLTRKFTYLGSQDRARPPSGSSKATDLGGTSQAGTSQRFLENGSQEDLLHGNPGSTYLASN
UniProt O15037, whole entry: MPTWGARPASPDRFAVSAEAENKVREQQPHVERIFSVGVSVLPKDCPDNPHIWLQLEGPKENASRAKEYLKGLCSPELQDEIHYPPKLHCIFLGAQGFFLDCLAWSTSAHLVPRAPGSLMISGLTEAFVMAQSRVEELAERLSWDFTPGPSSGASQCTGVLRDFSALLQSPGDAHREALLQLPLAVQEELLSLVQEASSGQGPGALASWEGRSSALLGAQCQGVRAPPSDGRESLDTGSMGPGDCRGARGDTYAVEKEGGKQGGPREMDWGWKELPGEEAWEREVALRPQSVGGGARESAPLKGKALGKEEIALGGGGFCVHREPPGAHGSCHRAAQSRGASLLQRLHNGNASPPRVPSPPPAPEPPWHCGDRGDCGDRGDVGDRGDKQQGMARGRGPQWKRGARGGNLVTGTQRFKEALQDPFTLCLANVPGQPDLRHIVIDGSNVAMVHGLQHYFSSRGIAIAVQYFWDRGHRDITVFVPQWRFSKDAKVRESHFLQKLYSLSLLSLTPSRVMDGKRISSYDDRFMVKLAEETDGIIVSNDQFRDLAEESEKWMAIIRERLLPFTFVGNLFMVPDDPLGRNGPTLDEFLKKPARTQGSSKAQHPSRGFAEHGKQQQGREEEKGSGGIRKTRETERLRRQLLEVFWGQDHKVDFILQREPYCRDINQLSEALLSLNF
UniProt Q14258, whole entry: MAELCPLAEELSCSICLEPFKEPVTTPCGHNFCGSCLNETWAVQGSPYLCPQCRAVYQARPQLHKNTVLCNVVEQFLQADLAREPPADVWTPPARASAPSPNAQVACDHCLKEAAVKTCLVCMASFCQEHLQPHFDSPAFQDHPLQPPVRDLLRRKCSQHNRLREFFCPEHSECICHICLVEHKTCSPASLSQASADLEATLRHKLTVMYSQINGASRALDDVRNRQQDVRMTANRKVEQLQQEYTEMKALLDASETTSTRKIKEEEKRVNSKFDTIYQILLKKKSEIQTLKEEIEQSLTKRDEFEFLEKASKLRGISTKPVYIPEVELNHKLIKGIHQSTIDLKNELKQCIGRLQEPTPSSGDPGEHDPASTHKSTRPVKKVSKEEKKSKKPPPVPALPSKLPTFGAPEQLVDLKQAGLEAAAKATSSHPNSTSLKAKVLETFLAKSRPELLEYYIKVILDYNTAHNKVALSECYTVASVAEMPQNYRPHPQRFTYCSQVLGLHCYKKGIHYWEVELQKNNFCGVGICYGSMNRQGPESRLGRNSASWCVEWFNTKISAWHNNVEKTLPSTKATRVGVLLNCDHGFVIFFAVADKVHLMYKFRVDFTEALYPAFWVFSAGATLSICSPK

Legend:
Assay in all cases: co-IP
[1] = target: GFP-tagged long isoform of zinc finger antiviral protein (GFP-ZAP-L) (human) (UniProt Q7Z2W4)
[2] = target: GFP-tagged ZAP 1-256 truncation mutant (human) (UniProt Q7Z2W4)
[3] = target: GFP-tagged ZAP-S with added CaaX box (GFP-ZAP-S + CVIS) (human) (UniProt Q7Z2W4)
[4] = target: GFP-tagged ZAP-L C899S (inactivated CaaX box) (human) (UniProt Q7Z2W4)
[5] = target: GFP-tagged ZAP 1-352 truncation mutant (human) (UniProt Q7Z2W4)

Measured: binding

KHNYN (endogenous) (from UniProt O15037 1-678)
binds: [1] | [2] | [3] | [4] | [5]

TRIM25 (endogenous) (from UniProt Q14258 1-630)
binds: [1] | [2] | [3] | [5]
